Experimental data published in US12029804B2, “Peptide for promoting mucous membrane permeation and composition containing same” (SOONCHUNHYANG UNIVERSITY INDUSTRY ACADEMY COOPERATION …, priority 2018, dated 2024).
Counter-ions that a name gives are not always drawn.

Assay: in vivo
Settings: male, Sprague-Dawley, rat, inhaled or intranasal, 1 mg/kg
Method: Male Sprague-Dawley (SD) rats (280-300 g) were acclimated for a minimum of two days in individual cages in a laboratory animal room. At this time, the rats were allowed to freely consume food and water before an experiment, provided with light for 12 hours, and maintained in the dark state for 12 hours. One day before the experiment, the animals were provided only with water and fasted.
The rats prepared in above 1 were divided into each group of three to five rats so as to prepare a total of nine groups, after which each of the test substances prepared was intranasally administered into the group. At this time, the dosage of each drug was 1.0, 2.5 or 5.0 mg/kg per rat.
Before intranasal administration, the rat was anesthetized and cannulated into the femoral veno-artery using PE-50. The solution was carefully administered to the nostril of the rat using a micropipette (Eppendof) so as not to affect the nasal mucous membrane. At this time, the rat's body was laid on the floor and the head was placed while leaning against the wall.
The collected blood was centrifuged at 13,000 rpm for 10 minutes so as to obtain 100 μl of plasma. After adding 200 μl of methanol to the obtained plasma, the resulting solution was subjected into vortex, and then centrifuged again at 13,000 rpm for 10 minutes to carry out deproteinization, and the supernatant was quantitatively analyzed by HPLC-MS.

**Q.** Which AUC(0-t) does the source give for CC(C)(C(=O)O)c1ccc(C(O)CCCN2CCC(C(O)(c3ccccc3)c3ccccc3)CC2)cc1 (stereo not drawn) [Fexofenadine, fexofenadine HCl, reference compound] here?
**A.** 71.3 ng·h/mL

**Q.** And the Cmax?
**A.** 54.1 ± 3.19 ng/mL

**Q.** And the Tmax?
**A.** 17.5 min
